# Results as given in paper PMC5479843.
# These are yes or no findings as the source states them, for the method shown.
# T1: MYOTIg1-2 (Ig1-2 domains of human myotilin, residues 250-444) (human), Q9UBF9
# T1 chain: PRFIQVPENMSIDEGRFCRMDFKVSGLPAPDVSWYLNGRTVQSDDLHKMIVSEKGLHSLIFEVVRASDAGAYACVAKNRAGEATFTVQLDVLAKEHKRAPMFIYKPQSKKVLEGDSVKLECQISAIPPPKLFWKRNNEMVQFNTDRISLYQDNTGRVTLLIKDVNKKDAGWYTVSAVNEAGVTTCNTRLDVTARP
# Target: T1, MYOTIg1-2 (Ig1-2 domains of human …)
# Experiment: SAXS; MYOTIg1-2 at 3.67, 7.00 and 14.12 mg/mL in 20 mM Na-HEPES, 150 mM NaCl, 5 % glycerol, 1 mM DTT, pH 7.4; curve extrapolated to zero concentration; molecular weight calculated from I0 and Porod volume; both purified
# Settings: remark: other sources report otherwise
binder,measurement,value
"MYOTIg1-2 (Ig1-2 domains of human myotilin, residues 250-444), Q9UBF9 250-444 (domain or fragment) PRFIQVPENMSIDEGRFCRMDFKVSGLPAPDVSWYLNGRTVQSDDLHKMIVSEKGLHSLIFEVVRASDAGAYACVAKNRAGEATFTVQLDVLAKEHKRAPMFIYKPQSKKVLEGDSVKLECQISAIPPPKLFWKRNNEMVQFNTDRISLYQDNTGRVTLLIKDVNKKDAGWYTVSAVNEAGVTTCNTRLDVTARP",binding,no binding (tested: 14.12 mg/mL)
